Experimental data published in EP0644181B1, “AMINO ACID DERIVATIVE AND USE THEREOF” (FUJI PHOTO FILM CO., LTD., priority 1992, dated 1993).
At least one peptide structure holds a part that was inferred or is arguable (an end, a ring closure or a residue).

System: PRP (polyplatelet rich plasma, 3 x 10^8 cells/ml)
Test: Platelet aggregation inhibition (ADP-induced, PRP)
Assay type: cell-based
Conditions: compound 1 mg/ml in PRP, ADP as inducer, read five minutes later

| SMILES | Platelet aggregation inhibition rate (%) |
| --- | --- |
| N=C(N)NCCC[C@H](NC(=O)CN)C(=O)NCC(=O)N[C@@H](CC(=O)O)C(=O)N[C@@H](CO)C(=O)O [GRGDS, Gly-Arg-Gly-Asp-Ser] | 100 |
| N=C(N)NCCC[C@H](N)C(=O)NCC(=O)N[C@@H](CC(=O)O)C(=O)N[C@@H](CO)C(=O)O [RGDS, Arg-Gly-Asp-Ser] | 100 |
